Measurements from article PMC10818623, “Assessing Trans-Inhibition of OATP1B1 and OATP1B3 by Calcineurin and/or PPIase Inhibitors and Global Identification of OATP1B1/3-Associated Proteins” (Pharmaceutics, 2023).
Results are given in words; binding and its absence hold for the method and conditions named. In cells and extracts the contact can be indirect. A yes stands for co-enrichment or nearness to the bait. Other partners may have been found. For some of these results: No binding means not detected with the bait. Where a sequence is shown, tags or fusion partners need not be part of it.

Assays:
[1] = biological target: T1, FLAG-tagged OATP1B1 (organic anion transporting polypeptide 1B1) (UniProt Q9Y6L6); assay: affinity purification with mass spectrometry; FLAG-IP (M2 resin, overnight, 4 °C) from whole cell lysates of HEK293-FLAG-OATP1B1, HEK293-FLAG-OATP1B3 and HEK293-Mock cells; lysis buffer 50 mM Tris-HCl pH 7.4, 150 mM NaCl, 1 mM EDTA, 1% Triton X-100; seven washes; elution in SDS sample buffer at 60 °C; LC-MS/MS; N = 1; no drug treatment
T1 sequence: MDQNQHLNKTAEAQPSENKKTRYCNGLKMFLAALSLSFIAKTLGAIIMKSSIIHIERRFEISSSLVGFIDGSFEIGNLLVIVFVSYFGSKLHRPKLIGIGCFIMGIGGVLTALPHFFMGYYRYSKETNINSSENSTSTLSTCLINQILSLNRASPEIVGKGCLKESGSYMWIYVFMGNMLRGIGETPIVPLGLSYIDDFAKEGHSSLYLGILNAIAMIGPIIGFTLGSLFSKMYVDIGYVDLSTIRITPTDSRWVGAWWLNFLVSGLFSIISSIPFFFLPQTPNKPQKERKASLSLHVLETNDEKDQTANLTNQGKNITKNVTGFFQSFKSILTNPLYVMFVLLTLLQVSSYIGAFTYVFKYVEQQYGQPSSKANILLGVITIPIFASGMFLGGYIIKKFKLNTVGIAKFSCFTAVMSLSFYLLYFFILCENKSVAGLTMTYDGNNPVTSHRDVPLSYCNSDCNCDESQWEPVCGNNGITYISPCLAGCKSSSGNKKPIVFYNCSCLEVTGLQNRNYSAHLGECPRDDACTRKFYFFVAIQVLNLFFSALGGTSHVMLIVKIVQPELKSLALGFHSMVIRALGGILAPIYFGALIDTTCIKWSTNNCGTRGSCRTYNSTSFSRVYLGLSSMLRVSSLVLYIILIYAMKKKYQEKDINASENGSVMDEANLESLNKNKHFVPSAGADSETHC

[2] = biological target: T2, FLAG-tagged OATP1B3 (organic anion transporting polypeptide 1B3) (UniProt Q9NPD5); assay: as above
T2 sequence: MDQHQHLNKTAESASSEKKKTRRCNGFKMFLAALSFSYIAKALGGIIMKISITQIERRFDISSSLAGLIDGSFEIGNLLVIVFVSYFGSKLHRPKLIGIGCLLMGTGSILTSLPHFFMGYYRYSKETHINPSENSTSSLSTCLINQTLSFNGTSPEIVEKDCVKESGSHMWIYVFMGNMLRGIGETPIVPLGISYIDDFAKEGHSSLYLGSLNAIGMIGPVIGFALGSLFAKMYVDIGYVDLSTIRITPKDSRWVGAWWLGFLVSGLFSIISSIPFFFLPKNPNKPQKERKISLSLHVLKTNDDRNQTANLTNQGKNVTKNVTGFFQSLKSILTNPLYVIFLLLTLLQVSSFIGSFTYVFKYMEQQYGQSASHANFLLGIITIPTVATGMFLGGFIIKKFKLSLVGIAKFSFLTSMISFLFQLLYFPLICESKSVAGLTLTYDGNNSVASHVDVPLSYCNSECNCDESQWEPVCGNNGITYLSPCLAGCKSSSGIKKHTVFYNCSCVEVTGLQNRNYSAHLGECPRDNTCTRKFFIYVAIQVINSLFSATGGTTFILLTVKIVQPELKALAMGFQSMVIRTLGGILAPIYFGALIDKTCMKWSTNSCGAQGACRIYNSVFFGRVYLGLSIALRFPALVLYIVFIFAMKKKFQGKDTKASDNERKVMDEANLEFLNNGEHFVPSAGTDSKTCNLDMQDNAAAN

B1: TGF-beta receptor type-1 (receptor, UniProt P36897 34-503)
chain: LQCFCHLCTKDNFTCVTDGLCFVSVTETTDKVIHNSMCIAEIDLIPRDRPFVCAPSSKTGSVTTTYCCNQDHCNKIELPTTVKSSPGLGPVELAAVIAGPVCFVCISLMLMVYICHNRTVIHHRVPNEEDPSLDRPFISEGTTLKDLIYDMTTSGSGSGLPLLVQRTIARTIVLQESIGKGRFGEVWRGKWRGEEVAVKIFSSREERSWFREAEIYQTVMLRHENILGFIAADNKDNGTWTQLWLVSDYHEHGSLFDYLNRYTVTVEGMIKLALSTASGLAHLHMEIVGTQGKPAIAHRDLKSKNILVKKNGTCCIADLGLAVRHDSATDTIDIAPNHRVGTKRYMAPEVLDDSINMKHFESFKRADIYAMGLVFWEIARRCSIGGIHEDYQLPYYDLVPSDPSVEEMRKVVCEQKLRPNIPNRWQSCEALRVMAKIMRECWYANGAARLTALRIKKTLSQLSQQEGIKM
binding [1]: binds
binding [2]: binds

B2: Dual specificity mitogen-activated protein kinase kinase 3 (enzyme, UniProt P46734 1-347)
chain: MESPASSQPASMPQSKGKSKRKKDLRISCMSKPPAPNPTPPRNLDSRTFITIGDRNFEVEADDLVTISELGRGAYGVVEKVRHAQSGTIMAVKRIRATVNSQEQKRLLMDLDINMRTVDCFYTVTFYGALFREGDVWICMELMDTSLDKFYRKVLDKNMTIPEDILGEIAVSIVRALEHLHSKLSVIHRDVKPSNVLINKEGHVKMCDFGISGYLVDSVAKTMDAGCKPYMAPERINPELNQKGYNVKSDVWSLGITMIEMAILRFPYESWGTPFQQLKQVVEEPSPQLPADRFSPEFVDFTAQCLRKNPAERMSYLELMEHPFFTLHKTKKTDIAAFVKEILGEDS
binding [1]: binds
binding [2]: no binding
